Measurements reported in PubChem BioAssay AID540276 (National Center for Advancing Translational Sciences (NCATS), 2011).
In all, about 300,000 compounds went through this assay and about 5,400 (1.8%) were called active. The inconclusive results got no clear call from the source; some entries with a clear call stand among them for comparison. The call rests on the fitted dose curve; tested in HEK293 cells. Potencies of inconclusive entries are doubtful fits and often do not repeat.

Test: qHTS for inhibitors of binding or entry into cells for Marburg Virus
Details: Marburg virus pseudotyped entry inhibition, cell reporter; series mostly up to 37.8 µM
Potency means the concentration at half of the fitted maximal effect.

| Compound | Potency |
| --- | --- |
| COc1cc(C2c3c(-c4ccc(C)cc4)n[nH]c3C(=O)N2c2ccc(F)cc2)ccc1O (centres undefined) | inconclusive: 10 µM [inhibitor, partial curve, poor fit] |
| O=C(/C=C/c1ccc(Cl)cc1Cl)N1CCc2ccccc21 | inconclusive: 0.562 µM [activator, partial curve, poor fit] |
| Cc1cc(C)c[n+](C(C)C(=O)c2ccc(-c3ccccc3)cc2)c1 (centres undefined) | inconclusive: 35.5 µM [inhibitor, single point] |
| CCOc1c(N2CC(C)OC(C)C2)c(=O)c1=O (centres undefined) | inactive |
| O=C(C[n+]1cn(C(F)F)c2ccccc21)c1ccc(Br)cc1 | inactive |
| COCCN(Cc1cc2ccc(C)cc2n2nnnc12)Cc1nnnn1C(C)(C)C | inconclusive: 0.178 µM [activator, full curve, poor fit] |
| C=CCN1C(=O)c2ccc(C(=O)N(CC)CC(=O)Nc3c(F)cccc3F)cc2C1=O | inconclusive: 0.708 µM [activator, single point] |
| CCc1nnc(NC(=O)c2cc(-c3ccco3)nc3ccccc23)s1 | inactive |
| CC(C)(C)C(=O)Nc1ccc(-c2csnn2)cc1 | inactive |
| COc1ccc(/C=N/NC(=O)c2cccnc2)cc1CSc1nc2ccccc2s1 | inactive |
| O=C(N/N=C/c1ccccc1[N+](=O)[O-])c1ccc2nc[nH]c2c1 | inconclusive: 11.2 µM [activator, partial curve, poor fit] |
| COc1cc([N+](=O)[O-])ccc1N1C(=O)C2C3C=CC(C4CC34)C2C1=O (centres undefined) | inactive |
| O=C(C1CC(=O)N(c2ccc3c(c2)OCCO3)C1)N1CCN(S(=O)(=O)c2ccccc2F)CC1 (centres undefined) | inactive |
| O=C(Cc1ccc(Br)cc1)NC1CCSC1=O (centres undefined) | inconclusive: 14.1 µM [activator, single point] |
| Cc1ccc(NC(=O)Cn2c(=O)oc3ccccc32)cc1C | inconclusive: 1.41 µM [activator, single point] |
| Cc1ccc2nc(-c3cc(-c4ccccc4)no3)cn2c1 | inconclusive: 1.58 µM [inhibitor, full curve, poor fit] |
| CCNc1ccc(Br)cc(C(=O)/C=C/c2ccc3c(c2)OCO3)c1=O | inactive |
| CC1=NCCN1CCNC(=O)Nc1cc(C)cc(C)c1 | inactive |
| Cc1cc(=O)oc2cc(NC(=O)c3cc4ccccc4o3)ccc12 | inactive |
| C(=C\CSc1nnnn1-c1ccccc1)/CSc1nnnn1-c1ccccc1 | inactive |
| CCOc1ccc(N(CC(=O)Nc2ccccc2CC)S(=O)(=O)c2c(C)[nH]c(=O)[nH]c2=O)cc1 | inconclusive: 2.82 µM [inhibitor, single point] |
| O=c1c2ccccc2[nH]c(=S)n1Cc1ccc2c(c1)OCO2 | inactive |
| Cc1ccc(C)c(CSCC(=O)NCc2cccs2)c1 | inconclusive: 1 µM [inhibitor, full curve, poor fit] |

Entries shown so far that have a nitro group on carbon:

| Compound | Potency |
| --- | --- |
| O=C(N/N=C/c1ccccc1[N+](=O)[O-])c1ccc2nc[nH]c2c1 | inconclusive: 11.2 µM [activator, partial curve, poor fit] |
| COc1cc([N+](=O)[O-])ccc1N1C(=O)C2C3C=CC(C4CC34)C2C1=O (centres undefined) | inactive |

Remaining list, next part:

| Compound | Potency |
| --- | --- |
| CNCCCCOc1ccc(C(C)(C)C)cc1Cl | inconclusive: 15.8 µM [inhibitor, single point] |
| COCC(C)n1c(SCc2ccc(C(=O)OC)cc2)nc2ccccc2c1=O (centres undefined) | inconclusive: 25.1 µM [inhibitor, single point] |
| COc1nc(Nc2ccc(C(C)=O)cc2)nc(OC)n1 | inactive |
| CCn1cc(C(=O)NCCc2ccc(OC)c(OC)c2)c(=O)c2cc(S(=O)(=O)N3CCC(C)CC3)ccc21 | inconclusive: 22.4 µM [inhibitor, single point] |
| Cc1ccc(S(=O)(=O)N2CCOC2CNC(=O)C(=O)NCc2ccc3c(c2)OCO3)cc1 (centres undefined) | inactive |
| CCN(CC)S(=O)(=O)c1ccc2c(c1)nc(SC(C)C(N)=O)n2-c1ccc(OC)cc1 (centres undefined) | inconclusive: 35.5 µM [inhibitor, single point] |
| COc1cc(/C=N/Nc2nc(=O)[nH]nc2C)cc(OC)c1O | inactive |
| Cc1ccc(S(=O)(=O)Nc2ccc(-c3csc(-c4ccccc4)n3)cc2)cc1 | inactive |
| CC(=O)Nc1ccc(NC(=S)NC(=O)/C=C/c2ccc(Cl)cc2)cc1 | inconclusive: 6.31 µM [inhibitor, partial curve, poor fit] |
| Cc1ccc(/C=c2/sc3n(c2=O)CCCN=3)o1 | inconclusive: 0.82 µM [activator, full curve, poor fit] |
| COc1ccc(CNc2oc(Cc3cccc4ccccc34)nc2C#N)cc1 | inconclusive: 35.5 µM [inhibitor, single point] |
| O=C(Nc1ccc(Br)cc1)c1ccccc1CC[N+](=O)[O-] | inactive |
| O=C(N/N=C/c1ccc[nH]1)c1cc(-c2ccc(Cl)cc2)nc2ccccc12 | inconclusive: 11.2 µM [inhibitor, partial curve, poor fit] |
| C=CCn1c(SC(C)C(N)=O)nc2sc(CC)cc2c1=O (centres undefined) | inactive |
| CC1(C)Cc2nc3sc4c(=O)n(CC(=O)NCc5ccco5)cnc4c3cc2CO1 | inconclusive: 5.17 µM [inhibitor, full curve, poor fit] |
| COc1ccc(CN(C)C(=O)c2oc3ccccc3c2CSC)cc1F | inconclusive: 20 µM [inhibitor, partial curve, poor fit] |
| COc1ccc(Cl)cc1NC(=O)Cn1nc(Cc2ccncc2)c2ccccc2c1=O | inconclusive: 25.1 µM [inhibitor, single point] |
| CCC(C)NC(=O)C1c2ccccc2Oc2ccccc21 (centres undefined) | inconclusive: 35.5 µM [inhibitor, single point] |
| COc1ccccc1/C=C/C(C)=O | inconclusive: 0.116 µM [inhibitor, full curve, poor fit] |
| CCOc1ccccc1NC(=O)Cn1c(=O)n(Cc2ccco2)c(=O)c2ccc(C(=O)NC3CCCC3)cc21 | inactive |
| C/C(=N\O)c1c(O)cc(-c2ccccc2)n(-c2ccccc2)c1=O | inconclusive: 0.631 µM [activator, partial curve, poor fit] |
| CCOc1ccc(C(=O)CCC(=O)Nc2ncccc2O)cc1 | inconclusive: 17.8 µM [activator, single point] |
| COc1ccc2[nH]c(=O)c(CN(C(=O)c3ccco3)C3CCCCC3)cc2c1 | inconclusive: 0.631 µM [activator, partial curve, poor fit] |

| Compound | Potency |
| --- | --- |
| CCCOc1ccc(Br)cc1/C=N/NC(=O)c1cc(OC)c(OC)c(OC)c1 | inconclusive: 1.26 µM [inhibitor, single point] |
| COc1ccc(-c2nc(C#N)c(N3CCC(C)CC3)o2)cc1 | inconclusive: 7.08 µM [activator, partial curve, poor fit] |
| CC(OC(=O)c1ccccc1N1C(=O)C2C3CCC(C3)C2C1=O)C(=O)c1ccccc1 (centres undefined) | inconclusive: 4.11 µM [activator, single point] |
| Cc1ccc(C)c(N(CC(=O)NC2CCCC2)S(=O)(=O)c2ccccc2)c1 | inconclusive: 12.6 µM [inhibitor, partial curve, poor fit] |
| COc1cc(/C=N/Nc2ccc(Cl)c(C(=O)O)c2)ccc1OC(=O)c1ccccc1F | inactive |
| Cc1nc(C)c(C(=O)O)s1 | inconclusive: 5.62 µM [activator, single point] |
| COCC(=O)N(CCc1ccc(OC)c(OC)c1)Cc1cc2cc(C)ccc2nc1Cl | inactive |
| O=C1N(c2ccccc2)c2ccccc2C1(Cc1ccncc1)Cc1ccncc1 | inconclusive: 0.355 µM [inhibitor, full curve, poor fit] |
| Cc1cccc(N2CCN(C(C)C(=O)N3CCc4ccccc43)CC2)c1C (centres undefined) | inconclusive: 2.82 µM [inhibitor, full curve] |
| O=C(CCCn1c(=S)[nH]c2cc3c(cc2c1=O)OCO3)N1CCN(c2ccccc2)CC1 | inactive |
| CCc1ccc2c(COC(=O)c3n[nH]c4ccccc34)cc(=O)oc2c1 | inconclusive: 35.5 µM [inhibitor, single point] |
| Cc1cc(C)cc(CSCC(=O)N/N=C/c2ccc(OCC(=O)NCc3ccco3)cc2)c1 | inconclusive: 10.3 µM [inhibitor, partial curve, poor fit] |
| [O-]c1c[n+](-c2ccc(-[n+]3cc([O-])on3)cc2)no1 | inactive |
| CCc1ccc2nc(SCC(=O)Nc3ccccc3N3CCOCC3)c(C#N)cc2c1 | inconclusive: 2.24 µM [inhibitor, full curve, poor fit] |
| Cc1ccsc1CN(C)CC(=O)Nc1cccc(S(=O)(=O)N(C)c2ccccc2)c1 | inconclusive: 12.6 µM [inhibitor, partial curve] |
| CCCN1CNC(=S)N(c2ccc(C(=O)OCC)cc2)C1 | inconclusive: 35.5 µM [activator, single point] |
| O=C1OC(CCl)CN1Cc1ccc([N+](=O)[O-])cc1 (centres undefined) | inconclusive: 3.55 µM [inhibitor, single point] |
| CC1CCc2cc(F)ccc2N1C(=O)c1ccc2c(c1)OCO2 (centres undefined) | inconclusive: 35.5 µM [inhibitor, single point] |
| CCCc1nc2ccccc2n1Cc1ccccc1OC | inconclusive: 10 µM [inhibitor, partial curve, poor fit] |
| O=C(Nc1ccc(N2CCCC2)cc1)c1cc([N+](=O)[O-])ccc1N1CCOCC1 | inconclusive: 6.31 µM [inhibitor, partial curve, poor fit] |
| Cc1cccc(-c2nc(CSCC(=O)NCCc3ccc(Cl)cc3)c(C)o2)c1 | inactive |
| O=C(COc1ccccc1F)Nc1nc(-c2ccccn2)cs1 | inconclusive: 35.5 µM [inhibitor, single point] |
| O=S(=O)(CCSc1ccccn1)c1nc2ccccc2s1 | inconclusive: 20.6 µM [inhibitor, single point] |
